For at least one compound, name, drawing or mass did not settle the structure.
Test system: ischemic brain damage (MCAo)
Assay: Permanent middle cerebral artery occlusion (MCAo), brain infarct size by MRI
Format: in vivo, rat
Settings: 2 mg/kg i.v. 10 min after MCAo; 24 and 48 h
Experimental: Quantitative analysis of infarct size volume at 24 and 48 h after MCAo from rats receiving vehicle (C1, n=5) or Mtk (2 mg/kg intravenously, i.v., 10 min after MCAO; n=6); vehicle (C2, n=5) or AR-C (4.5 μg/animal intracerebroventricularly, i.c.v., 10 min after MCAo, n=5), vehicle (C3, n=5) or either oligo616 or scrambled-oligo (400 ng/animal, i.c.v., 48, 24 before and 10 min after MCAo, n=5). Data are expressed as percentage variation of infarct volume at 24 and 48 hours after MCAo compared to 2 h considered as 100% (§ p<0.05, # p<0.01 vs volume at 2 hr; *p <0.05, **p<0.01 vs corresponding control evaluated at the same time point). Induction of focal brain ischemia in the rat. Male Sprague-Dawley rats (Charles River) underwent permanent middle cerebral artery occlusion (MCAo) as previously described^28,29. […] AR-C was utilized here to simply test the involvement of GPR17 in brain ischemia, and, being a very polar molecule which is likely to very poorly permeate the blood brain barrier, it was administered i.c.v. Oligo-616 and oligo-scramble (400 ng in 5 μl of physiological solution) were administered i.c.v three times to each rat 48, 24 h before and 10 minutes after MCAo. Control groups received corresponding vehicle i.c.v. Magnetic Resonance Imaging analysis. […]

CC(C)(O)c1ccccc1CC[C@@H](SCC1(CC(=O)O)CC1)c1cccc(/C=C/c2ccc3ccc(Cl)cc3n2)c1 [Montelukast]
evolution of brain infarct size (MRI) with respect to 2 h: markedly prevented increase of damage

Reference: patent publication US8158593B2, “GPR17 modulators, method of screening and uses thereof” (Universita' degli Studi di Milano, priority 2004, dated 2012)
